Test results: doi:10.1101/2024.08.11.607506

Target: T1, SRSF5 (UniProt Q13243)
T1 sequence: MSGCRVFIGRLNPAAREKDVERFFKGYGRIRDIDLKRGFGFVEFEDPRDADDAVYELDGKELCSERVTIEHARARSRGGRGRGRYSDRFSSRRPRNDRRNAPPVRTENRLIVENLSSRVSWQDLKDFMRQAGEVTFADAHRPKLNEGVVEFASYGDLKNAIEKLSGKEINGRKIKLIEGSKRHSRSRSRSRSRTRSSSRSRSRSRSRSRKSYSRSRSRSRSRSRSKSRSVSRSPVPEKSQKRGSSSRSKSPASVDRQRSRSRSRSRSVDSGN
Experiment: affinity purification with mass spectrometry

binding: no binding
B1: PSPC1 (protein, UniProt Q8WXF1 1-523)
chain: MMLRGNLKQVRIEKNPARLRALESAVGESEPAAAAAMALALAGEPAPPAPAPPEDHPDEEMGFTIDIKSFLKPGEKTYTQRCRLFVGNLPTDITEEDFKRLFERYGEPSEVFINRDRGFGFIRLESRTLAEIAKAELDGTILKSRPLRIRFATHGAALTVKNLSPVVSNELLEQAFSQFGPVEKAVVVVDDRGRATGKGFVEFAAKPPARKALERCGDGAFLLTTTPRPVIVEPMEQFDDEDGLPEKLMQKTQQYHKEREQPPRFAQPGTFEFEYASRWKALDEMEKQQREQVDRNIREAKEKLEAEMEAARHEHQLMLMRQDLMRRQEELRRLEELRNQELQKRKQIQLRHEEEHRRREEEMIRHREQEELRRQQEGFKPNYMENREQEMRMGDMGPRGAINMGDAFSPAPAGNQGPPPMMGMNMNNRATIPGPPMGPGPAMGPEGAANMGTPMMPDNGAVHNDRFPQGPPSQMGSPMGSRTGSETPQAPMSGVGPVSGGPGGFGRGSQGGNFEGPNKRRRY

No constants are given. Whether binding was seen depends on the method and setting. In cells and extracts the contact can be indirect. A yes stands for co-enrichment or nearness to the bait. Other partners may have been found. No binding means not detected with the bait.
